Laboratory results published in ChEMBL document CHEMBL4303122, “Identification of potential treatments for COVID-19 through artificial intelligence-enabled phenomic analysis of human cells infected with SARS-CoV-2” (2020).
“And” between values parts separate entries of the source, which are not always exact repeats. Equal entries are not always repeated. Over roughly 1,600 compounds, “Hit score” has its median near 0.13; the highest 2% begin near 0.46. The list shows a part of the results.

What follows are molecules tested on SARS-CoV-2 (assay: Antiviral activity against SARS-CoV-2 (USA-WA1/2020 strain) measured by imaging in HRCE cells at MOI 0.4 after 96 hrs (reported as hit score from 0-1 for on-disease vs off-disease activity: scores >0.6 considered hits)).
Assay type: functional, Homo sapiens

| SMILES | Hit score |
| --- | --- |
| CC(=O)Oc1ccccc1C(=O)O [ASPIRIN] | 0.102 |
| CO[C@H]1C[C@@H]2CC[C@@H](C)[C@@](O)(O2)C(=O)C(=O)N2CCCC[C@H]2C(=O)O[C@H]([C@H](C)C[C@@H]2CC[C@H](n3cnnn3)[C@H](OC)C2)CC(=O)[C@H](C)/C=C(\C)[C@@H](O)[C@@H](OC)C(=O)[C@H](C)C[C@H](C)/C=C/C=C/C=C/1C [ZOTAROLIMUS] | 0.6315 |
| CC(CCc1ccccc1)NC(C)C(O)c1ccc(O)cc1 (stereo not given) [NYLIDRIN] | -0.0447 |
| C#Cc1cccc(Nc2ncnc3cc4c(cc23)OCCOCCOCCO4)c1 [ICOTINIB] | 0.1043 |
| C=CC(=O)Nc1cc(Nc2nccc(-c3cn(C)c4ccccc34)n2)c(OC)cc1N(C)CCN(C)C [OSIMERTINIB] | 0.3216 |
| O=[N+]([O-])c1cncn1CCN1CCOCC1 [NIMORAZOLE] | 0.1444 |
| C[C@@H](c1nc(-c2ccc(C#N)cc2)cs1)[C@](O)(Cn1cncn1)c1cc(F)ccc1F [ISAVUCONAZOLE] | 0.1201 |
| COc1ccc(CN2CCNCC2)c(OC)c1OC.Cl.Cl [TRIMETAZIDINE DIHYDROCHLORIDE] | 0.06907 |
| C[C@]12CC[C@@H]3c4ccc(OC(=O)N(CCCl)CCCl)cc4CC[C@H]3[C@@H]1CC[C@@H]2O [ESTRAMUSTINE] | 0.23 |
| COc1cc(C2Oc3cc([C@H]4Oc5cc(O)cc(O)c5C(=O)[C@@H]4O)ccc3OC2CO)ccc1O (stereo not given in full) [SILIBININ] | 0.1996 |
| CC(=O)O[C@]1(C(C)=O)CC[C@H]2[C@@H]3C[C@H](C)C4=CC(=O)CC[C@]4(C)[C@H]3CC[C@@]21C [MEDROXYPROGESTERONE ACETATE] | 0.2613 |
| CO[C@@H]1[C@H](N(C)C(=O)c2ccccc2)C[C@H]2O[C@]1(C)n1c3ccccc3c3c4c(c5c6ccccc6n2c5c31)C(=O)NC4 [MIDOSTAURIN] | -0.02037 |
| CC(C)N(CCC(C(N)=O)(c1ccccc1)c1ccccn1)C(C)C (stereo not given) [DISOPYRAMIDE] | 0.1987 |
| CC(=O)N[C@@H](CS)C(=O)O [ACETYLCYSTEINE] | 0.1287 and 0.2321 |
| N=C(N)NCc1cccc(I)c1 [IOBENGUANE] | -0.003502 |
| NC(=O)OCC(COC(N)=O)c1ccccc1 [FELBAMATE] | 0.06665 |
| Cc1ccc2c(c1)[C@]13CCCC[C@@H]1[C@H](C2)N(C)CC3 [DIMEMORFAN] | 0.08461 |
| N[C@@H](Cc1ccc(N(CCCl)CCCl)cc1)C(=O)O | 0.13 |

Structural class, those above with an aryl methoxy group

| SMILES | Hit score |
| --- | --- |
| C=CC(=O)Nc1cc(Nc2nccc(-c3cn(C)c4ccccc34)n2)c(OC)cc1N(C)CCN(C)C [OSIMERTINIB] | 0.3216 |
| COc1ccc(CN2CCNCC2)c(OC)c1OC.Cl.Cl [TRIMETAZIDINE DIHYDROCHLORIDE] | 0.06907 |
| COc1cc(C2Oc3cc([C@H]4Oc5cc(O)cc(O)c5C(=O)[C@@H]4O)ccc3OC2CO)ccc1O (stereo not given in full) [SILIBININ] | 0.1996 |

Next part

| SMILES | Hit score |
| --- | --- |
| COC(=O)N[C@H](C(=O)N[C@@H](Cc1ccccc1)[C@@H](O)CN(Cc1ccc(-c2ccccn2)cc1)NC(=O)[C@@H](NC(=O)OC)C(C)(C)C)C(C)(C)C [ATAZANAVIR] | 0.1414 |
| CNC[C@H](O)[C@@H](O)[C@H](O)[C@H](O)CO [MEGLUMINE] | 0.1269 |
| Cn1cc(C(=O)[C@@H]2CCc3[nH]cnc3C2)c2ccccc21 [RAMOSETRON] | 0.1855 |
| CCOC(=O)[C@H](C)C[C@@H](Cc1ccc(-c2ccccc2)cc1)NC(=O)CCC(=O)O [SACUBITRIL] | 0.07267 |
| CCOC(=O)[C@H](CCc1ccccc1)N[C@@H](C)C(=O)N(CC(=O)O)C1Cc2ccccc2C1 | 0.293 |
| C1CCN2C[C@@H]3C[C@@H](CN4CCCC[C@@H]34)[C@H]2C1.O.O.O.O.O.O=S(=O)(O)O [SPARTEINE SULFATE] | 0.06144 |
| C[C@H](Cn1cnc2c(N)ncnc21)OCP(=O)(O)O [TENOFOVIR ANHYDROUS] | 0.1182 |
| CC(C)(C)c1ccc(C(=O)CCCN2CCC(OC(c3ccccc3)c3ccccc3)CC2)cc1 [EBASTINE] | 0.1539 |
| CC[C@H](NC(=O)c1c(O)c(-c2ccccc2)nc2ccccc12)c1ccccc1 [TALNETANT] | 0.007184 |
| COc1cccc(Nc2c(C(N)=O)cnc3c(C)cc(S(=O)(=O)c4cccc(C(=O)N(C)C)c4)cc23)c1 [GSK-256066] | -0.006373 |
| Nc1c(CC(=O)O)cccc1C(=O)c1ccc(Br)cc1 [BROMFENAC] | 0.2148 |
| C=CCNc1nc(NCC=C)nc(N2CCN(C(c3ccc(F)cc3)c3ccc(F)cc3)CC2)n1 [ALMITRINE] | 0.7206 |
| CN(C/C=C/c1ccccc1)Cc1cccc2ccccc12 [NAFTIFINE] | 0.03695 |
| CC(=O)CCCCn1c(=O)c2c(ncn2C)n(C)c1=O [PENTOXIFYLLINE] | 0.2031 |
| N[C@@H](Cc1cc(CP(=O)(O)O)cc(-c2ccccc2Cl)c1)C(=O)O | 0.1456 |
| CC(C)(C)c1nc(-c2cccc(NS(=O)(=O)c3c(F)cccc3F)c2F)c(-c2ccnc(N)n2)s1 [DABRAFENIB] | -0.274 |
| CCN1CCCC(OC(=O)C(c2ccccc2)c2ccccc2)C1 (stereo not given) [PIPERIDOLATE] | 0.179 |
